± gives the standard deviation of the averaged measurements. This is one part of the list.
Compound: Nc1nc2c(ncn2[C@@H]2O[C@H](COP(=O)(O)OP(=O)(O)OP(=O)(O)O)[C@@H](O)[C@H]2O)c(=O)[nH]1 [guanosine triphosphate]
Assay: NP40-soluble protein abundance relative to vehicle (solubility fold change) (ratio); higher = more soluble protein in presence of GTP
Description: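 Solubility proteome profiling in Jurkat crude lysate. Lysate was treated with Mg-GTP (0.1-10 mM) for 10 min at room temperature and 3 min at 37 °C, then solubilised with 0.8% NP40 and benzonase, followed by ultracentrifugation. Proteins were quantified by TMT10 LC-MS/MS; the value is the NP40-soluble abundance relative to the NP40-processed vehicle, from 3 independent experiments.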

The chains behind the UniProt entries cited, without tags or fusion partners. Where a name states a change or a piece, a line headed by the entry shows the natural chain unless it says otherwise.
UniProt P22059, whole entry: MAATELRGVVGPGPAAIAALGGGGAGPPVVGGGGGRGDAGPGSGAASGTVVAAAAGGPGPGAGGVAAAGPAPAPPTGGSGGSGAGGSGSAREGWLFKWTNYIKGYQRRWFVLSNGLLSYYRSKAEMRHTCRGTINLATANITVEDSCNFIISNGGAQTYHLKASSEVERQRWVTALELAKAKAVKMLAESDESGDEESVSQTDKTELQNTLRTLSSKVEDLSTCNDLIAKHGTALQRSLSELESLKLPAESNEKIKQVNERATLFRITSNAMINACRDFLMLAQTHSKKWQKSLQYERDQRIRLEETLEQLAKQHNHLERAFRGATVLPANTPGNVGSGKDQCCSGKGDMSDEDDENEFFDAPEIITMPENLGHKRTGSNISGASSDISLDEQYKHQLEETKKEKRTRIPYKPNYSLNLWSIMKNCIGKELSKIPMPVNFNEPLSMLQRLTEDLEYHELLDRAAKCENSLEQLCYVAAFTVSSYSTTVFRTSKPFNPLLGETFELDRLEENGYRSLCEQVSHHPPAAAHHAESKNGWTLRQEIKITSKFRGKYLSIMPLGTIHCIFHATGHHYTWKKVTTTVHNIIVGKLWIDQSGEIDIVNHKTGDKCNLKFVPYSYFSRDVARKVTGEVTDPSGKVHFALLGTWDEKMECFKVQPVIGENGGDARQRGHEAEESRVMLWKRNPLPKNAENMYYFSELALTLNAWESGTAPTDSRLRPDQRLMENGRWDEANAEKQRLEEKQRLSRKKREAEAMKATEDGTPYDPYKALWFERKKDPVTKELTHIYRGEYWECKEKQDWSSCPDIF
UniProt P11388: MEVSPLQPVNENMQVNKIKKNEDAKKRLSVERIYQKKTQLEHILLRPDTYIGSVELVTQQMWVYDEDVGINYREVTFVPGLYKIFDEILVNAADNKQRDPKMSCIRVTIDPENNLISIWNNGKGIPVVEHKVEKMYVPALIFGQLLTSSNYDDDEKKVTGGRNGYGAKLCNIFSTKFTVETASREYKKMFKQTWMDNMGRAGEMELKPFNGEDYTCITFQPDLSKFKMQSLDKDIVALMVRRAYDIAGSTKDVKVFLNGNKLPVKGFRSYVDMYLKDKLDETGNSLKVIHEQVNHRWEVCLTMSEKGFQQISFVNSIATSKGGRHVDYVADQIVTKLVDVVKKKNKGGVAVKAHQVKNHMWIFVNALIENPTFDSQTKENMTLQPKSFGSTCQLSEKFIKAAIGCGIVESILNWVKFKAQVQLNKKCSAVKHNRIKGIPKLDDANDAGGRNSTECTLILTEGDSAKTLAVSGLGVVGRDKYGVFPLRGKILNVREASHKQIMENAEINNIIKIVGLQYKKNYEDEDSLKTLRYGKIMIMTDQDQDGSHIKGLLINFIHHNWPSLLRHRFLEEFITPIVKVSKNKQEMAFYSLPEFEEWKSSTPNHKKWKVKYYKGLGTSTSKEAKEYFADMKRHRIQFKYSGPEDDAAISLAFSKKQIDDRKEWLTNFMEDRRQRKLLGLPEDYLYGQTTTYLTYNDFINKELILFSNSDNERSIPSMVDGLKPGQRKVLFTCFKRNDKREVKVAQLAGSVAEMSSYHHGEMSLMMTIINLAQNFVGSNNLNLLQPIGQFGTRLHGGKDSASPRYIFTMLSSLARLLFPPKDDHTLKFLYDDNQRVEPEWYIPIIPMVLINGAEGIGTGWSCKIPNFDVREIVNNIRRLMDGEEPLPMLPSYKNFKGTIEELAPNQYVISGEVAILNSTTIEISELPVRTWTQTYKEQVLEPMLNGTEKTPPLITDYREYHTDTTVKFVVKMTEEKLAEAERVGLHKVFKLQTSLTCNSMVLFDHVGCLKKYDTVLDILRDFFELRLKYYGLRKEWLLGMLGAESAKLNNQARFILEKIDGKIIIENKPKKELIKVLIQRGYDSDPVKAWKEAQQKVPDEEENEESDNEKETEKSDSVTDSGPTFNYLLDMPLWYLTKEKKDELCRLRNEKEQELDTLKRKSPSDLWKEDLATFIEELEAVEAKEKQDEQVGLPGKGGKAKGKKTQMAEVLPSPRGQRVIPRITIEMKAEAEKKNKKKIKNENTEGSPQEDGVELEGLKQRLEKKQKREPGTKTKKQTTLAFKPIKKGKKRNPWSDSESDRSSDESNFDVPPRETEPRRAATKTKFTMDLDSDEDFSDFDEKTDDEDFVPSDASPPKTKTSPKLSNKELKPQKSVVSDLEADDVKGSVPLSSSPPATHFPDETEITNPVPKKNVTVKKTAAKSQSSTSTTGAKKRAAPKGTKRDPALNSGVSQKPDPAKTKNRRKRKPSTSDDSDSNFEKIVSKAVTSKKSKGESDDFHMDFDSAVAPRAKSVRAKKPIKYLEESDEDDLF
UniProt P10515, whole entry: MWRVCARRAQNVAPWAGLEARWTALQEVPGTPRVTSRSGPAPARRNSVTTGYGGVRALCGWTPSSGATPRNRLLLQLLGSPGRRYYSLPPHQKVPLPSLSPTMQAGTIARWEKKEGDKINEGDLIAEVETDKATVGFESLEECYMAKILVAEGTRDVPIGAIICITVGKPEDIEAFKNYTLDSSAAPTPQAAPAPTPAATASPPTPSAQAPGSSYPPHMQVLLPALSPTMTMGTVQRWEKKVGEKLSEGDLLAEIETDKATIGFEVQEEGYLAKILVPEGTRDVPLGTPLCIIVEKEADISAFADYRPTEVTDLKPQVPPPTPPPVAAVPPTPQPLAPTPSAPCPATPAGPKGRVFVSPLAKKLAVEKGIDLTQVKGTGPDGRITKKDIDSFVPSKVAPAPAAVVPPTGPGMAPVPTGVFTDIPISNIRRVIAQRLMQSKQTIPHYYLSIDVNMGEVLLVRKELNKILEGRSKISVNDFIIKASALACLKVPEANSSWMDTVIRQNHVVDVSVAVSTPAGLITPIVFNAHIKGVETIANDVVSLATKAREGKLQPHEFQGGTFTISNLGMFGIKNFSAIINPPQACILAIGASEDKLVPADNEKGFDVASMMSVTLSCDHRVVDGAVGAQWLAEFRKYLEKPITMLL
UniProt P14317: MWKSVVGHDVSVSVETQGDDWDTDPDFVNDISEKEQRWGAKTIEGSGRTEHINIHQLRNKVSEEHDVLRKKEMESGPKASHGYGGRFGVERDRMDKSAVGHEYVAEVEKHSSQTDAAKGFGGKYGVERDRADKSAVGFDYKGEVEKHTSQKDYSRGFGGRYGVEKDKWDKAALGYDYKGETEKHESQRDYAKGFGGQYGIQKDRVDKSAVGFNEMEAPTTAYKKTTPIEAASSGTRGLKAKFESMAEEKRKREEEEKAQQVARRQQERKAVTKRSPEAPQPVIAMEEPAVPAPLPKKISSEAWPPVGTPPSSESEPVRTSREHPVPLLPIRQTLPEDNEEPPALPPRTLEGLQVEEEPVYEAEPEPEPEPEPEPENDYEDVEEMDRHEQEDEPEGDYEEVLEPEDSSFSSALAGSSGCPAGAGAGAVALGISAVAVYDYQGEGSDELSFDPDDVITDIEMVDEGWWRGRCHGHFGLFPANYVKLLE
UniProt P20042, whole entry: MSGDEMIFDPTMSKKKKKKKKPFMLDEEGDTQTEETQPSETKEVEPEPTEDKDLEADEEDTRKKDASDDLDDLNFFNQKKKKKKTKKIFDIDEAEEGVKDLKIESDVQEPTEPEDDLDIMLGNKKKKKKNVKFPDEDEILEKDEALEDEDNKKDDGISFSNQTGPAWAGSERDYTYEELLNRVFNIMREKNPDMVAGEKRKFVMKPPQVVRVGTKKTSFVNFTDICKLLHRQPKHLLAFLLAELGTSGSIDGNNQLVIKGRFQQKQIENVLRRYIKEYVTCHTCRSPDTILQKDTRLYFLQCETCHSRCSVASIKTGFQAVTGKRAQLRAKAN

Row | Target | NP40-soluble protein abundance (concentration: 0.1mM) | NP40-soluble protein abundance (concentration: 0.5mM) | NP40-soluble protein abundance (concentration: 1mM) | NP40-soluble protein abundance (concentration: 2mM) | NP40-soluble protein abundance (concentration: 4mM) | NP40-soluble protein abundance (concentration: 6mM) | NP40-soluble protein abundance (concentration: 8mM) | NP40-soluble protein abundance (concentration: 10mM)
1 | OSBP (UniProt P22059) | 0.982 ± 0.02 | 1 ± 0.026 | 0.94 ± 0.033 | 0.932 ± 0.018 | 0.906 ± 0.037 | 0.935 ± 0.034 | 0.932 ± 0.024 | 0.896 ± 0.043
2 | UniProt P11388 and related entries | 1.06 ± 0.054 | 1.14 ± 0.036 | 1.2 ± 0.022 | 1.43 ± 0.052 | 1.73 ± 0.1 | 1.94 ± 0.16 | 2.01 ± 0.18 | 2.12 ± 0.15
3 | DLAT (UniProt P10515) | 1.11 ± 0.22 | 1.28 ± 0.39 | 1.47 ± 0.56 | 1.85 ± 0.82 | 2.12 ± 1.1 | 2.06 ± 1.1 | 1.98 ± 0.98 | 1.91 ± 0.99
4 | HCLS1 (UniProt P14317) | 0.877 ± 0.12 | 0.938 ± 0.13 | 0.906 ± 0.12 | 0.871 ± 0.15 | 0.833 ± 0.13 | 0.879 ± 0.13 | 0.888 ± 0.11 | 0.899 ± 0.14
5 | EIF2S2 (UniProt P20042) | 0.967 ± 0.061 | 0.994 ± 0.082 | 1.02 ± 0.096 | 1 ± 0.1 | 1.01 ± 0.092 | 1.03 ± 0.11 | 1.05 ± 0.079 | 1.04 ± 0.091

Source: the supplement of paper PMC6411743
